According to patent publication US20050079574A1:
These are yes or no findings as the source states them, for the method shown. Some binding calls cover weakened binding; strength is not graded here.

The chains behind the UniProt entries cited, without tags or fusion partners. Residues count along the entry.
UniProt P17948, residues 129-229: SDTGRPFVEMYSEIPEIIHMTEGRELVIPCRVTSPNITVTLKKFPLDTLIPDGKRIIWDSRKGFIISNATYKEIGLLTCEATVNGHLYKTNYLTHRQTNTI
UniProt P35968, residues 20-764: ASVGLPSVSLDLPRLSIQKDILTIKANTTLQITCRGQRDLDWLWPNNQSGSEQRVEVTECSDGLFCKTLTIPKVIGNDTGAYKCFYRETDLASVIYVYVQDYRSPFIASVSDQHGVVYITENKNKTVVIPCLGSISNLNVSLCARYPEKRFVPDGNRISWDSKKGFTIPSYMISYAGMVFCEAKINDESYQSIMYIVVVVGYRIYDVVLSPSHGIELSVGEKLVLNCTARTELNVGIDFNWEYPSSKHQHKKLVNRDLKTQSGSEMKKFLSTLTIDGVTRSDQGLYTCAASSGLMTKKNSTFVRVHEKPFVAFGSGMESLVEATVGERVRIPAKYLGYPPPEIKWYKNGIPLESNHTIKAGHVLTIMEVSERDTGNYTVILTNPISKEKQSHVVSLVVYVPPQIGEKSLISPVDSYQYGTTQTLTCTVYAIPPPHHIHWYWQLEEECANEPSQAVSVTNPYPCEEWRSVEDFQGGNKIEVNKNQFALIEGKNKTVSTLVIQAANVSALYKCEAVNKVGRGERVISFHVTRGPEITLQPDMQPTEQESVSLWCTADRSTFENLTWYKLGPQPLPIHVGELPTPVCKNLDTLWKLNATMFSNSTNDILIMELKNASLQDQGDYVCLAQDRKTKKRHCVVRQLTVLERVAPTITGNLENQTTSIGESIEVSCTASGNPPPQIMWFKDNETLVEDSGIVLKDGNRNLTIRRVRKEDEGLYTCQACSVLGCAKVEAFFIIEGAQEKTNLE

Tests used:
[1] = target: T1, mVEGF (murine Vascular Endothelial Growth Factor) (murine) (UniProt Q00731); test: competitive phage ELISA on coated murine VEGF; Flt1-D2 titrated against phage clones V1, V2, V4, V5, V6, V7, V8, V9, V10; only V2 is displaced
T1 sequence (looked up): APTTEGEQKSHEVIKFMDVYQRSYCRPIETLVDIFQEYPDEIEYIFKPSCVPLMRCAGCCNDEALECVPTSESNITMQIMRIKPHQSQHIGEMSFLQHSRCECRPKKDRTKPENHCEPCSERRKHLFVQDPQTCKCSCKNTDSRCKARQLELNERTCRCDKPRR

[2] = target: T1, mVEGF (murine Vascular Endothelial Growth Factor) (murine); test: competitive phage ELISA on coated murine VEGF; KDR1-7igg titrated against phage clones V1, V2, V4, V5, V6, V7, V8, V9, V10

Row | binding [1] | binding [2] | Substance
1 | binds |  | Flt-D2 (Domain 2 of Flt-1) (from UniProt P17948 129-229) (receptor)
2 |  | binds | KDR1-7-igg (from UniProt P35968 20-764) (Fc fusion)
